The source of these data is publication PMC11302967.

Sequences of proteins named here, by UniProt entry; tags and fusion partners are left off.
UniProt O14493: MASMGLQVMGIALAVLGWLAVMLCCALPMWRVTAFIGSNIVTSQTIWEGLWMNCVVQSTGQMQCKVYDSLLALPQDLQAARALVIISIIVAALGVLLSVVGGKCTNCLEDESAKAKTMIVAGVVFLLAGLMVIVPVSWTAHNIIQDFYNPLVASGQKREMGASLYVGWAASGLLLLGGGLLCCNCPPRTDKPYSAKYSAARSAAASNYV
UniProt P04406: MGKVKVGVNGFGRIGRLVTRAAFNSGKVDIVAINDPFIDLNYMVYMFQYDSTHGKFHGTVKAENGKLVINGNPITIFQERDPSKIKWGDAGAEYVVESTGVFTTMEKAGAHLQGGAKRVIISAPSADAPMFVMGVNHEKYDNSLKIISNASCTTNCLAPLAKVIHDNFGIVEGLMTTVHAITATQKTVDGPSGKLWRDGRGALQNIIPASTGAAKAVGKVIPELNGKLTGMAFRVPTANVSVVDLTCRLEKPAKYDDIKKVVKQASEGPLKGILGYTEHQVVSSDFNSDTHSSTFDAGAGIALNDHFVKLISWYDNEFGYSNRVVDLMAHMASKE

The target in the test is T1, eGFP-tagged ATP8B1 (UniProt O43520).
T1 sequence: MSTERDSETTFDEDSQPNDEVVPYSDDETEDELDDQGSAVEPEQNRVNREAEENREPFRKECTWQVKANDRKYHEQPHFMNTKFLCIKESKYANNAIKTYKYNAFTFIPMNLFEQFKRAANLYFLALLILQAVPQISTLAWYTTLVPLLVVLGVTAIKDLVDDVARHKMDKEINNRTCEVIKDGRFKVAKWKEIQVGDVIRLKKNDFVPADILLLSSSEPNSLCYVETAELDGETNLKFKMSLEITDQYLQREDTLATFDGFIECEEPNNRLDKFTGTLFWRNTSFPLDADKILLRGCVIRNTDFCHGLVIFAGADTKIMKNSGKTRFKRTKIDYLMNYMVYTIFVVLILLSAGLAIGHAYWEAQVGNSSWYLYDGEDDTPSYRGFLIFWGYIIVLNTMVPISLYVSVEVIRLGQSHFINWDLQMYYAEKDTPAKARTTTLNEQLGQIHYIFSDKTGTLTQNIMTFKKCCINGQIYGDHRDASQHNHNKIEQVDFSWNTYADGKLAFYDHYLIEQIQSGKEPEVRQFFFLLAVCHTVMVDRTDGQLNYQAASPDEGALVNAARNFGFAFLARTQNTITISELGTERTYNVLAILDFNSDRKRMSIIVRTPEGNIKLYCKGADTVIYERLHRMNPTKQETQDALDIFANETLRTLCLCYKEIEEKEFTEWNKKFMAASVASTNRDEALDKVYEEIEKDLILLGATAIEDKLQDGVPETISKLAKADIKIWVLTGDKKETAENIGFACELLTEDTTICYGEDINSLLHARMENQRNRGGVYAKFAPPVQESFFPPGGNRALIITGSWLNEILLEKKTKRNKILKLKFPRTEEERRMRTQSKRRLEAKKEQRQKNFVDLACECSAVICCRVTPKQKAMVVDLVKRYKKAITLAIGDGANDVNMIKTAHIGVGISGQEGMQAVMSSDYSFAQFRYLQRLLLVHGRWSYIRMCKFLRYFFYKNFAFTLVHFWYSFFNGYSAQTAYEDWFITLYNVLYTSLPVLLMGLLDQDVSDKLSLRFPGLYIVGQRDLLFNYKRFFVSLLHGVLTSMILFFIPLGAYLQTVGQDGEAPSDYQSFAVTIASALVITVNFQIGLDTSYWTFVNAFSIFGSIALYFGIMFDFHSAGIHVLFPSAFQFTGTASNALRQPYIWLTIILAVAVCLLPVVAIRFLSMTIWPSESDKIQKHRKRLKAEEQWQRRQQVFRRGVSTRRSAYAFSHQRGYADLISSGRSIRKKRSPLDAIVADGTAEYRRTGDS
The test can be described thus: co-IP; anti-GFP immunoprecipitation of ATP8B1-eGFP from Caco2-BBE cells over-expressing ATP8B1-eGFP; immunoblot of the eluate.

These are yes or no findings as the source states them, for the method shown. Binding seen in cells or lysates may run through a third protein. Some binding calls cover weakened binding; strength is not graded here. Sequences can lack the tags named with a protein.

For Claudin-4 (from UniProt O14493 1-209), the binding result is on record as “binds”.
Take GAPDH (from UniProt P04406 1-335): the binding result is on record as “no binding”.
